In US20080274950A1 (BABRAHAM INSTITUTE, published 2008):
These are yes or no findings as the source states them, for the method shown. Some binding calls cover weakened binding; strength is not graded here. For some assays here: Where a sequence is shown, tags or fusion partners need not be part of it.

Tests used:
[1] = biological target: full length chicken N-cadherin with the mutation E89A expressed on K562 cells (chicken) (UniProt P10288); assay: adhesion of K562 E89A cells to coated N-cadherin Fc
[2] = biological target: full length chicken N-cadherin with the mutation E89A expressed on K562 cells (chicken) (UniProt P10288); assay: adhesion, data not shown

| Binder | binding [1] | binding [2] |
| --- | --- | --- |
| truncated chicken N-cadherin Fc fusion protein with the mutation W2G, containing only cadherin domains EC1 and EC2 (Fc fusion, UniProt P10288 165-387, looked up, not shown: a dimerising Fc or GST) DGVIPPINLPENSRGPFPQELVRIRSDRDKSLSLRYSVTGPGADQPPTGIFIINPISGQLSVTKPLDREQIASFHLRAHAVDVNGNQVENPIDIVINVIDMNDNRPEFLHQVWNGTVPEGSKPGTYVMTVTAIDADDPNAQNGMLRYRILSQAPSSPSPNMFTINNETGDIITVAAGLDREKVQQYTLIIQATDMEGNPTYGLSNTATAVITVTDVNDNPPEF | binds |  |
| N-cadherin with the N-terminus extended by a single Cys (protein, chicken) CDWVIPPINLPENSRGPFPQELVRIRSDRDKSLSLRYSVTGPGADQPPTGIFIINPISGQLSVTKPLDREQIASFHLRAHAVDVNGNQVENPIDIVINVIDMNDNRPEFLHQVWNGTVPEGSKPGTYVMTVTAIDADDPNAQNGMLRYRILSQAPSSPSPNMFTINNETGDIITVAAGLDREKVQQYTLIIQATDMEGNPTYGLSNTATAVITVTDVNDNPPEFTAMTFYGEVPENRVDVIVANLTVTDKDQPHTPAWNARYQMTGGDPTGQFTILTDPNSNDGLVTVVKPIDFETNRMFVLTVAAENQVPLAKGIQHPPQSTATVSITVIDVNESPYFVPNPKLVRQEEGLLAGSMLTTFTARDPDRYMQQTSLRYSKLSDPANWLKIDPVNGQITTTAVLDRESIYVQNNMYNATFLASDNGIPPMSGTGTLQIYLLDINDNAPQVNPKEATTCETLQPNAINITAVDPDIDPNAGPFAFELPDSPPSIKRNWTIVRISGDHAQLSLRIRFLEAGIYDVPIVITDSGNPHASSTSVLKVKVCQCDINGDCTDVDRIVGAGLGT |  | binds |
